Measured values as given in PMC9980308.
These are yes or no findings as the source states them, for the method shown. In cells and extracts the contact can be indirect. Some entries that bind do so weakly or less than the wild type.

By UniProt entry, the sequences of proteins in these tests, tags left out.
UniProt P11532: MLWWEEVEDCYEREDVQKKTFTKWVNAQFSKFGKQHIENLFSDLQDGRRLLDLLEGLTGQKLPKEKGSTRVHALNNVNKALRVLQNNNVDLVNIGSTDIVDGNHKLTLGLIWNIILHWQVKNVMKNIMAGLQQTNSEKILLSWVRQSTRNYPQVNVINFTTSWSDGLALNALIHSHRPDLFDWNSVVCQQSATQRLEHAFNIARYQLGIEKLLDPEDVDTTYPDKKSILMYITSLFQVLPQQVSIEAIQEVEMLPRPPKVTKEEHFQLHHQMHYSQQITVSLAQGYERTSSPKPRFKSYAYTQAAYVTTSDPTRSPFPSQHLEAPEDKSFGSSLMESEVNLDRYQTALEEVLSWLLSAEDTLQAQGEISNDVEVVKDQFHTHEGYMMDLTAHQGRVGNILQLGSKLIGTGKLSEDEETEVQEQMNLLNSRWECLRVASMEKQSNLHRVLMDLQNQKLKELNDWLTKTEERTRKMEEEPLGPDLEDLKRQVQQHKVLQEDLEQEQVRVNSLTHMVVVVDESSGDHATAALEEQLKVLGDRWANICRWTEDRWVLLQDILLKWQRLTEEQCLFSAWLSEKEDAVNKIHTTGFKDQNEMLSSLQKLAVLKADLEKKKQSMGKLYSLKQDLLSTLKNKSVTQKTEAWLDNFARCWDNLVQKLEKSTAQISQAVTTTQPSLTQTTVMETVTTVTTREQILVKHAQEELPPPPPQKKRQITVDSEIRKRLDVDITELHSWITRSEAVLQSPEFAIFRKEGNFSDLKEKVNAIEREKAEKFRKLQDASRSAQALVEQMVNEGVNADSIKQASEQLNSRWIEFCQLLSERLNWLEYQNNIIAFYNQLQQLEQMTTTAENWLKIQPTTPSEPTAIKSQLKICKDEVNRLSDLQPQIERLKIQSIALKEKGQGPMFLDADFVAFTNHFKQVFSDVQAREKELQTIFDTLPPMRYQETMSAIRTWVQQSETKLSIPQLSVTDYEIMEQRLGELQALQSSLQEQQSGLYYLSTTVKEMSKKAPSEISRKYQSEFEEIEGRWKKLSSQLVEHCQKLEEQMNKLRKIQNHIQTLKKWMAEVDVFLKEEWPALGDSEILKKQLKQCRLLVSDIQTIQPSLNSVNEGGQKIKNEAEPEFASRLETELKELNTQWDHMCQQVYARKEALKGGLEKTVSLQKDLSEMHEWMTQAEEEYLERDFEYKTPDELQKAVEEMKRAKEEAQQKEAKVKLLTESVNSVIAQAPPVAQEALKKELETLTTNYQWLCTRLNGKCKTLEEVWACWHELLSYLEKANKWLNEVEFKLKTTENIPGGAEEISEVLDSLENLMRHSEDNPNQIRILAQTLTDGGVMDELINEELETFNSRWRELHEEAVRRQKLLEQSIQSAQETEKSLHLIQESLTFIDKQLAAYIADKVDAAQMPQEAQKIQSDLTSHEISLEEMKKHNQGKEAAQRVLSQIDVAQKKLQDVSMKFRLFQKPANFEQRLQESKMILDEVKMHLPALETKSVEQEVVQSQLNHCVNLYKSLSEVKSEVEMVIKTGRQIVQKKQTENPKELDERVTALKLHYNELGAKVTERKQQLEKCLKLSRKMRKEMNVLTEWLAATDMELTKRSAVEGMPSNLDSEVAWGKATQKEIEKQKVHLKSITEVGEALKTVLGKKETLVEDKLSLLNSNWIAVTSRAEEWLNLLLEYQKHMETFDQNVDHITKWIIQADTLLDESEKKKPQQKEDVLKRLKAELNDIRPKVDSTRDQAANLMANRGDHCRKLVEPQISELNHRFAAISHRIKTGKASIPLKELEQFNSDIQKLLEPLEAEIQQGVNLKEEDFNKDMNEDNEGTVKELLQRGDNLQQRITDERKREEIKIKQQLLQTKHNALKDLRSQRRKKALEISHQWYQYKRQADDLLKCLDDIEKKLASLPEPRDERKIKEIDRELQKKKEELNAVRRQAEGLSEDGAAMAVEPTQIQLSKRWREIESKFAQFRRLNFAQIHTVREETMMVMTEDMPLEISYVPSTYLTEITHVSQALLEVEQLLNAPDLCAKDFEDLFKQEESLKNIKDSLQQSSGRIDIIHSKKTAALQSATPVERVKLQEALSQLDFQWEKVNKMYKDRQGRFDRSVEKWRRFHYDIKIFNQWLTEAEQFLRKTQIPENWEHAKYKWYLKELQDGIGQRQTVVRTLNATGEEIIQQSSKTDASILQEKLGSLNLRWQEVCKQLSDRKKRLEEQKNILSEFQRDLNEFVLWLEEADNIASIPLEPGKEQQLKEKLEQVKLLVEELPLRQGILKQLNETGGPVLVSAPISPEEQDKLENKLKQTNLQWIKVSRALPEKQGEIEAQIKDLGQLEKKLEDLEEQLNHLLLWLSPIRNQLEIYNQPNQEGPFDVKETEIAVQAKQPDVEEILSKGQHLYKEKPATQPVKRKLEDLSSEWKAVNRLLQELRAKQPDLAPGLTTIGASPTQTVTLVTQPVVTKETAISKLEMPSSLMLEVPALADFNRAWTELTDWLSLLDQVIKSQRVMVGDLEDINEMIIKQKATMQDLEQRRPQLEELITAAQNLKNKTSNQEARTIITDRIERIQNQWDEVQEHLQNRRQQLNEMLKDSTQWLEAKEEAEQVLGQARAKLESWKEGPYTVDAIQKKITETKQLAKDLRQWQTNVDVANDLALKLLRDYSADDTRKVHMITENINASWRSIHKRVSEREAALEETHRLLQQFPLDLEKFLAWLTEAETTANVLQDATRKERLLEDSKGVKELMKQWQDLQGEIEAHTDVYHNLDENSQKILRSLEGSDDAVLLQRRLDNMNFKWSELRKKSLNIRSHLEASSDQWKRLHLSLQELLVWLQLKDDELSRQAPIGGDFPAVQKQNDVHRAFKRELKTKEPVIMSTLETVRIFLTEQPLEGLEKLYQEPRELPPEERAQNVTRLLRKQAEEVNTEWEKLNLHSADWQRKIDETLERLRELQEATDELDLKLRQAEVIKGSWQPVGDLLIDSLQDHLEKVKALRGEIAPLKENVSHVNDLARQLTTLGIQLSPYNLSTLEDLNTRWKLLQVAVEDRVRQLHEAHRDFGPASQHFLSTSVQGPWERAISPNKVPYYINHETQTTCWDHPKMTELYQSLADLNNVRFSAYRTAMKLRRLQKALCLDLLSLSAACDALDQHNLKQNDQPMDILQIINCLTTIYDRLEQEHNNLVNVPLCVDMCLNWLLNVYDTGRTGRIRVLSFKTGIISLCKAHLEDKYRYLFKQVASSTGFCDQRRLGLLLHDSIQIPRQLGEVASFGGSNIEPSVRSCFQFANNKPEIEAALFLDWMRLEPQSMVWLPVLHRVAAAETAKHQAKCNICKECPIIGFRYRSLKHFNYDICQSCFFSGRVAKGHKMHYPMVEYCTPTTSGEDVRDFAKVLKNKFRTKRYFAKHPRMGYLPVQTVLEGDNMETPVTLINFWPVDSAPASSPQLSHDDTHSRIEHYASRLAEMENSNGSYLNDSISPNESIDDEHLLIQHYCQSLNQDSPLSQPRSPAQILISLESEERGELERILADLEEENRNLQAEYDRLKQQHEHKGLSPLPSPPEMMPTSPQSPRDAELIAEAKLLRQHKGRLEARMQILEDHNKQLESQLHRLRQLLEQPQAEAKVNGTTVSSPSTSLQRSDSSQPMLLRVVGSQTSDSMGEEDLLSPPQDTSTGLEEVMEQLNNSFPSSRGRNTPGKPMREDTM

Target: T1, Rab GTPase 3C (UniProt Q96E17)
T1 sequence: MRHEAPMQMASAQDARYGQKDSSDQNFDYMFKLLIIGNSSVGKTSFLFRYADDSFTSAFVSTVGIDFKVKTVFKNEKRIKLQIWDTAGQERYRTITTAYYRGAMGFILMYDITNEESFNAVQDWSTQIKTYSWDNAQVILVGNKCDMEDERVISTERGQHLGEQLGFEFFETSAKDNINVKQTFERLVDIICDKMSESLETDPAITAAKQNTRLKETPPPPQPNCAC
Experiment: co-IP; whole-cell lysates (2 mg) of SW480, SW48 and DLD-1 RAB3C-overexpression models; antibody against RAB3C or dystrophin with protein A/G magnetic beads, overnight in IP buffer; two-way (both directions)

binding: binds
Substance: dystrophin (from UniProt P11532 1-3685)
